In patent US20180193456A1 (HENLIUS BIOTECH, published 2018):
Results are given in words; binding and its absence hold for the method and conditions named. Some binding calls cover weakened binding; strength is not graded here.

Chains of the proteins cited; added tags and fusions are not shown. Residues count along the entry.
UniProt P35968, residues 20-1356: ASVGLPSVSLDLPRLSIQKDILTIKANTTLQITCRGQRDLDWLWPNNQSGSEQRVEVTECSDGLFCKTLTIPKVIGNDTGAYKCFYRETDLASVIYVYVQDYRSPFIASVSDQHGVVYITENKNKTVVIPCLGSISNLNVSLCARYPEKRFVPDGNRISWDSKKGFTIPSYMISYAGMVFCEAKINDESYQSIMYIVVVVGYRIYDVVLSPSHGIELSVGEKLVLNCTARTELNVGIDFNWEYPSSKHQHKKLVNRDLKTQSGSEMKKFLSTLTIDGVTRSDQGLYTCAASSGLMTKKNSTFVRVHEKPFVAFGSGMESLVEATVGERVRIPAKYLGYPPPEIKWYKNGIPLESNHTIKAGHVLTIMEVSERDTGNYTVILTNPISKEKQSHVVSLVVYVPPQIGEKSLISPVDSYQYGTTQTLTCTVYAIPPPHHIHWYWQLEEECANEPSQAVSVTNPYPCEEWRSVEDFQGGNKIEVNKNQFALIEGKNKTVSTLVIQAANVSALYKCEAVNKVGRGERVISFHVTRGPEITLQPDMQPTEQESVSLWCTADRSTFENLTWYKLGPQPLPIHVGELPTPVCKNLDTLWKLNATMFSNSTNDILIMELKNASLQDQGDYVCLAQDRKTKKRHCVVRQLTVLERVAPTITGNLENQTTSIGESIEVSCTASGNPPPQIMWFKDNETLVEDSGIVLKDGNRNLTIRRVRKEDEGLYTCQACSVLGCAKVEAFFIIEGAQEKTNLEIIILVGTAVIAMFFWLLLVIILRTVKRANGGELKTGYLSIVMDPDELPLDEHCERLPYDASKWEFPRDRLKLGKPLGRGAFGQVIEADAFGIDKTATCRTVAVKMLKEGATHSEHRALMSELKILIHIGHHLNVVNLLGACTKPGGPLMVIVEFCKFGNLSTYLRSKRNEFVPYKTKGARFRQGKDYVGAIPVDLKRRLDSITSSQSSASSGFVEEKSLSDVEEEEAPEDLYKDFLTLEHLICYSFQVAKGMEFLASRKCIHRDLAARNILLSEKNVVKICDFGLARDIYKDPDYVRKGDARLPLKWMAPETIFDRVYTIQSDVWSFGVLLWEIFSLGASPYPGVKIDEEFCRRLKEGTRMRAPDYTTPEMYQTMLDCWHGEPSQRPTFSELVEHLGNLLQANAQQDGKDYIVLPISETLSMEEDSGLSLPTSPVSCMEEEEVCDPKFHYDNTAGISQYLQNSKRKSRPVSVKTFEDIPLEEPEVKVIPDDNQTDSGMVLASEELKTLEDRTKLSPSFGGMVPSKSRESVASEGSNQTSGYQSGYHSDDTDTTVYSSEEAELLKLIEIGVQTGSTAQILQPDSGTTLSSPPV

Tests used:
[1] = target: VEGFR2 on human endothelial cells (human) (UniProt P35968); experiment: flow cytometry on fixed HUVECs, biotinylated rabbit anti-human IgG and streptavidin-PE, MFI
[2] = target: VEGFR2 on human endothelial cells (human) (UniProt P35968); experiment: flow cytometry on fixed HUVECs, FITC-labelled anti-Fc secondary antibody, GeoMean
[3] = target: VEGFR2 on human endothelial cells (human) (UniProt P35968); experiment: flow cytometry on fixed HUVECs, biotinylated anti-human IgG and streptavidin-PE; FIG. 15 experiment: fixed HUVECs, detection with biotinylated rabbit anti-human IgG then streptavidin-PE

Measured: binding

B1: 1121N (antibody, V domains shown)
VH: EVQLVQSGGGLVKPGGSLRLSCAASGFTFSSYSMNWVRQAPGKGLEWVSSISSSSSYIYYADSVKGRFTISRDNAKNSLYLQMNSLRAEDTAVYYCARVTDAFDIWGQGTMVTVSS
VL: DIQMTQSPSSVSASIGDRVTITCRASQGIDNWLGWYQQKPGKAPKLLIYDASNLDTGVPSRFSGSGSGTYFTLTISSLQAEDFAVYFCQQAKAFPPTFGGGTKVDIKG
notes: Anti-VEGFR2 antibody of U.S. Pat. No. 7,498,414, positive control; Entries run into the start of the constant domains
binds: all assays above
